This is an account of results in paper PMC3965549, “Evidence for LINC1-SUN Associations at the Plant Nuclear Periphery” (PLoS ONE, 2014).

Results are given in words; binding and its absence hold for the method and conditions named. Binding seen in cells or lysates may run through a third protein. Where a sequence is shown, tags or fusion partners need not be part of it.

In the assay the target is T1, AtLINC1-YFP (Arabidopsis, UniProt F4HRT5 1-1132).
T1 construct: Little Nuclei 1 (LINC1) of Arabidopsis; also called Little Nuclei 1
T1 sequence (looked up): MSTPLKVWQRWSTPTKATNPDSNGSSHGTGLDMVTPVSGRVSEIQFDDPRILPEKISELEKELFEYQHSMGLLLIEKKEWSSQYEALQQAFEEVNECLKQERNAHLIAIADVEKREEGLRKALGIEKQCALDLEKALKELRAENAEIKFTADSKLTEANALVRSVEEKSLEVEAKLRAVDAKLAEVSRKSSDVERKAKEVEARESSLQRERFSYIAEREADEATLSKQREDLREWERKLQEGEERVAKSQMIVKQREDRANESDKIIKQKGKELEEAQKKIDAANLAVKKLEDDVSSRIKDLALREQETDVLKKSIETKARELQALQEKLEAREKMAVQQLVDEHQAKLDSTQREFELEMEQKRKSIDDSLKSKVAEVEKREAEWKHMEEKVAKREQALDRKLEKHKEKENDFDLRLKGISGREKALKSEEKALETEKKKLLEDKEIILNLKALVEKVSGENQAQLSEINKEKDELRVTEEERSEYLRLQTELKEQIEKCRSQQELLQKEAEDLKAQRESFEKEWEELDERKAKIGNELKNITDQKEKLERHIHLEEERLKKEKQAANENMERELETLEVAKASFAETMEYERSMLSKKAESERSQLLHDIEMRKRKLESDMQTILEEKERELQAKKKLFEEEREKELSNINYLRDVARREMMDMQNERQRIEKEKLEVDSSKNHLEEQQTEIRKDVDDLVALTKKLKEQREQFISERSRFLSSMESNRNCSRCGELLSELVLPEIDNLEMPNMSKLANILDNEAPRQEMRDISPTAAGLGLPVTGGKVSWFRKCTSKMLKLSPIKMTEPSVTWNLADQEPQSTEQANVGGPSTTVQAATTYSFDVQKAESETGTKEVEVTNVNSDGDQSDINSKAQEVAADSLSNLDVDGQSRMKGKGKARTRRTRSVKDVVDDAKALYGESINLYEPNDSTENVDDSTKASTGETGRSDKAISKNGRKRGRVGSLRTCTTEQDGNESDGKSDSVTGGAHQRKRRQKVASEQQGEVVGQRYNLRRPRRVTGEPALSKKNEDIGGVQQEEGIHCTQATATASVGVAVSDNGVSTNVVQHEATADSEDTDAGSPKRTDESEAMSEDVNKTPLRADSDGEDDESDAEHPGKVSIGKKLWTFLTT
The assay is described as follows: FRET or BRET; acceptor photobleaching FRET (apFRET) in N. benthamiana leaf cells 3 days after infiltration; CFP donor on the SUN constructs, YFP acceptor on AtLINC1; YFP bleached in a constant ROI; pre-bleach fluorescence as internal negative control; about 35 NE per sample.

B1: AtSUN1ΔN-CFP (domain or fragment, UniProt Q9FF75 107-471)
chain: VVRIFAKQLGALLIIVGLIQLTRKMILKASSPSSPISSYETEMAFSGLESRIAEVDGLVKATTNSMQVQVELLDKKMEREAKVLRQEIERKASAFQSELKKIESRTESLEKSVDEVNAKPWVTKDELERIYEELKKGNVDDSAFSEISIDELRAYARDIMEKEIEKHAADGLGRVDYALASGGAFVMEHSDPYLVGKGSSWFATTMRRAHTNAVKMLSPSFGEPGQCFPLKGSEGYVQIRLRGPIIPEAFTLEHVAKSVAYDRSSAPKDCRVSGSLQGPESSAETENMQLLTEFTYDLDRSNAQTFNILESSSSGLIDTVRLDFTSNHGSDSHTCIYRFRVHGRAPDPVPVVGTNLDQDSSPESE
Regarding B1, the binding result is listed as “no binding”.

B2: AtSUN2ΔN-CFP (domain or fragment, UniProt Q9SG79 105-455)
chain: KTVVRVFAKQFGALLLLVGLIQLIRKLTLKDSSLSSSNFPIETEMVLSELESRISAVDGLVKTTTKMMQVQVEFLDKKMDSESRALRQTIDSTSSVLHSELKKVESKTERLQVSVDELNAKPLVSREELERVYEELKKGKVGDSDVNIDKLRAYARDIVEKEIGKHVADGLGRVDYALASGGAFVMGHSDPFLVGNGRNWFGTSRRRVHSKAVKMLTPSFGEPGQCFPLKGSNGYVLVRLRAPIIPEAVTLEHVSKAVAYDRSSAPKDCRVSGWLGDIDMETETMPLLTEFSYDLDRSNAQTFDIADSAHSGLVNTVRLDFNSNHGSSSHTCIYRFRVHGRELDSVSVAHA
With B2, the binding entry is listed as “no binding”.
